These are yes or no findings as the source states them, for the method shown. Binding seen in cells or lysates may run through a third protein. Some binding calls cover weakened binding; strength is not graded here.

The chains behind the UniProt entries cited, without tags or fusion partners.
UniProt Q6QI06: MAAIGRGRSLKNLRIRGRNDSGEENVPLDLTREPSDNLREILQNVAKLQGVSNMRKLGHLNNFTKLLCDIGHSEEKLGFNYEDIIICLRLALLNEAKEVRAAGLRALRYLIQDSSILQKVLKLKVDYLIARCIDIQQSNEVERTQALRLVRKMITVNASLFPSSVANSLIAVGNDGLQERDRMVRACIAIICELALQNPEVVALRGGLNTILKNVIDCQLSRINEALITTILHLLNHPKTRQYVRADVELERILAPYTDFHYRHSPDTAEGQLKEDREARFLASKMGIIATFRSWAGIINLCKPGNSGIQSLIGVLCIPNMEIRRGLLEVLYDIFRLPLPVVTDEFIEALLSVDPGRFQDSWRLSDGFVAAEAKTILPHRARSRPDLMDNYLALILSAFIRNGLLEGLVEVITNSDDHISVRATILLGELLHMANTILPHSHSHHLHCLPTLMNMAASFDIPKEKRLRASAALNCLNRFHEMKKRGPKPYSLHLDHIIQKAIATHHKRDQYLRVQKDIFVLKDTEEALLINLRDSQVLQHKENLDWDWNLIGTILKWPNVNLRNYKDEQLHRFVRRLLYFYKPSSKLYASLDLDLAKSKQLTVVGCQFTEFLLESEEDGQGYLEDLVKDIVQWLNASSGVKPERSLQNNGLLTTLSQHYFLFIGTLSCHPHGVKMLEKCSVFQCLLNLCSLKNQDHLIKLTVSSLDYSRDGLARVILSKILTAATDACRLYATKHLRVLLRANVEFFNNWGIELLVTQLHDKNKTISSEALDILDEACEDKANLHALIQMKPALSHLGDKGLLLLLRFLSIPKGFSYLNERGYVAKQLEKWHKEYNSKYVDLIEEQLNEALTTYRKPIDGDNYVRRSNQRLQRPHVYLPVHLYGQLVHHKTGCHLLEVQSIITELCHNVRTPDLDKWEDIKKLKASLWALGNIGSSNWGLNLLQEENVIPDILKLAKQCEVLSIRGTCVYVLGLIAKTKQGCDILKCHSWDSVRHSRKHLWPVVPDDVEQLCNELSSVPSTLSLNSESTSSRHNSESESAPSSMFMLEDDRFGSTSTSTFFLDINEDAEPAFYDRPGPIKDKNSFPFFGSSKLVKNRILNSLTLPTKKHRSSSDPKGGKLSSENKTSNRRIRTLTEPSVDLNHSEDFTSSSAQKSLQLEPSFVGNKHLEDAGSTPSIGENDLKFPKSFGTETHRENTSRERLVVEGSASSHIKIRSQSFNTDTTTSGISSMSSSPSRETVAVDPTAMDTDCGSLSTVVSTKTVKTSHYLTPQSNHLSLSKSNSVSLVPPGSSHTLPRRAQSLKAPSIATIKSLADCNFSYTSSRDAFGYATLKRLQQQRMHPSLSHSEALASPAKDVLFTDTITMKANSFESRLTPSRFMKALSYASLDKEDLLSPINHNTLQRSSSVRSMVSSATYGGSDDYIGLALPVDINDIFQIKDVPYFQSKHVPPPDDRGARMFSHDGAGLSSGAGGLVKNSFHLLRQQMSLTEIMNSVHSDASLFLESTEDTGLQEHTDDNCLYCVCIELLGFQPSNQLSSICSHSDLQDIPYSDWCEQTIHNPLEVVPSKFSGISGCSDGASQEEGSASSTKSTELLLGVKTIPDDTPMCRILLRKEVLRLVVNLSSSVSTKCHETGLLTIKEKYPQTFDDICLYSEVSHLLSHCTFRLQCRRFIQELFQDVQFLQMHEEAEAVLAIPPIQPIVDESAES
UniProt Q8K4Q0: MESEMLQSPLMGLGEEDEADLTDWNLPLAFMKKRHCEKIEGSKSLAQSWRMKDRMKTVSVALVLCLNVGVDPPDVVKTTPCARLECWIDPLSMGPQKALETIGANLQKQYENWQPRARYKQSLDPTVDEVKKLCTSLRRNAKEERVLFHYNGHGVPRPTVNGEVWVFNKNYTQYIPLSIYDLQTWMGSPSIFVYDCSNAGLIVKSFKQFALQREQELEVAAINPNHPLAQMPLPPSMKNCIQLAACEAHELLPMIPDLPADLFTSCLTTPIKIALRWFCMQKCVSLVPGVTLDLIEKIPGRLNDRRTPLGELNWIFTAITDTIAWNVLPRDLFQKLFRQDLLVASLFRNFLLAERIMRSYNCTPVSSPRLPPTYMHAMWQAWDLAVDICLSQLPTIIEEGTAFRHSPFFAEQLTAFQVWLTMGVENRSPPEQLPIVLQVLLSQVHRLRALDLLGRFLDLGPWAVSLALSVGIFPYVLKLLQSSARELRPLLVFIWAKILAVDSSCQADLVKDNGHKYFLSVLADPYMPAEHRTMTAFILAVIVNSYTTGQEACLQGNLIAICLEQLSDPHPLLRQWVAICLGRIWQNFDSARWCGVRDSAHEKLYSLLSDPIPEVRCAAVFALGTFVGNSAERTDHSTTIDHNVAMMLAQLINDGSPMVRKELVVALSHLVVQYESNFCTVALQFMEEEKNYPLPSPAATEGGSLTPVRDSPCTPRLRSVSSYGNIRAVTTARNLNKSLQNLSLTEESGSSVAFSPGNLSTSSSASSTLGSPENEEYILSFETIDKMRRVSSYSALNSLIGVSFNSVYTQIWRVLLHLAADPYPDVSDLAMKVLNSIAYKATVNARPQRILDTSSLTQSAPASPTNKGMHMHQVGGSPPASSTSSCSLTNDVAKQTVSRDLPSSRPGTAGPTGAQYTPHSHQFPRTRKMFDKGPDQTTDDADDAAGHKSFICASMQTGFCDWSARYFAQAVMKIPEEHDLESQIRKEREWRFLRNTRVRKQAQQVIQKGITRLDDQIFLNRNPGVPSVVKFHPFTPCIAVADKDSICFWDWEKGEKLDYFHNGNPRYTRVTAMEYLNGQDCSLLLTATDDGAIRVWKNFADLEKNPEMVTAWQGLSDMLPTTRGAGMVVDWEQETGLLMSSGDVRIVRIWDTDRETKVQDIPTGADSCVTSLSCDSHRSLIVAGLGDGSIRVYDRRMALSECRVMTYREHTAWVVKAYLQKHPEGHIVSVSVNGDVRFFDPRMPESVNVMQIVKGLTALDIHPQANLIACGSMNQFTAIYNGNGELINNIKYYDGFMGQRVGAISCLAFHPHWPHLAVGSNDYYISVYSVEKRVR

Assay [1] deals with T1, Translationally controlled tumor protein (TCTP) (mouse (endogenous in AML12)) (UniProt P63028).
T1 sequence: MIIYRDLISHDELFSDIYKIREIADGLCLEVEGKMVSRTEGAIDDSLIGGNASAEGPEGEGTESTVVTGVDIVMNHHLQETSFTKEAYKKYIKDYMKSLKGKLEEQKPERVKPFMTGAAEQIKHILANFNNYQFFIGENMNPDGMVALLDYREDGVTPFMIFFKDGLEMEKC
The assay is described as follows: co-IP; lysate of AML12 cells treated with LPS-CM (modified RIPA buffer); immunoprecipitated with antibody against TCTP, mTOR or RICTOR overnight at 4 °C, protein A + G agarose 3 h; western blot.

Assay [2] addresses RICTOR (mouse (endogenous in AML12)) (UniProt Q6QI06). Described as above.

For the molecule RICTOR (from UniProt Q6QI06 1-1708), in assay [1], the binding entry is reported as “binds”. In the case of Raptor (from UniProt Q8K4Q0 1-1335), in assay [1], the binding result is listed as “no binding”.

B1: Translationally controlled tumor protein (TCTP) (protein, UniProt P63028 1-172)
chain: MIIYRDLISHDELFSDIYKIREIADGLCLEVEGKMVSRTEGAIDDSLIGGNASAEGPEGEGTESTVVTGVDIVMNHHLQETSFTKEAYKKYIKDYMKSLKGKLEEQKPERVKPFMTGAAEQIKHILANFNNYQFFIGENMNPDGMVALLDYREDGVTPFMIFFKDGLEMEKC
B1: the binding result in assay [2] is “binds”.

Values taken from PMC6978394.
